In this test the target is GST-PINK1(1–140), mitochondrial targeting domain (human) (UniProt Q9BXM7). In words: condition: 50 µg of protein from the crude extract in 0.25 ml; pull-down; GST fusion from E. coli crude extract held on glutathione agarose beads and washed with PBS; incubated with 50 µg of protein from the supernatant of E. coli crude extract with His-PINK1 or His-BAG5 in 0.25 ml HNTG buffer (20 mM HEPES-KOH pH 7.5, 100 mM NaCl, 0.1% Triton X-100, 10% glycerol), 2 h at 4°C; immunoblot; only the target purified. On the technique in general: In western blotting, separated proteins are transferred to a membrane and probed.

By UniProt entry, the sequences of proteins in these tests, tags left out. Where a name states a change or a piece, a line headed by the entry shows the natural chain unless it says otherwise.
UniProt Q9BXM7: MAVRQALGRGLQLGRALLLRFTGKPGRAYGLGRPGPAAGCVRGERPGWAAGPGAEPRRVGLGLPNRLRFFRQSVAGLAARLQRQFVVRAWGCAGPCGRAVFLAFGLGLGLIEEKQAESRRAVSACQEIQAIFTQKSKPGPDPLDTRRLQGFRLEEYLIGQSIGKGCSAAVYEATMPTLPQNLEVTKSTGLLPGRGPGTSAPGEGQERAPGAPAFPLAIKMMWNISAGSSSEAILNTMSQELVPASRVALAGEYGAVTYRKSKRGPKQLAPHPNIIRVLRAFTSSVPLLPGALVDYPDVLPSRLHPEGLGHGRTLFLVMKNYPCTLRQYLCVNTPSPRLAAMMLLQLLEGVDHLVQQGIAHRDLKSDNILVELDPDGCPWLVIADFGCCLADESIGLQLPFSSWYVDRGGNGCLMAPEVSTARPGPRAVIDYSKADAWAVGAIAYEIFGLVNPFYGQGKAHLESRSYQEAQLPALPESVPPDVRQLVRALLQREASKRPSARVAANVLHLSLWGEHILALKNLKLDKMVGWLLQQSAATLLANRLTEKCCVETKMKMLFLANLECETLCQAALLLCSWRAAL

Results are given in words; binding and its absence hold for the method and conditions named. Binding seen in cells or lysates may run through a third protein. Where a sequence is shown, tags or fusion partners need not be part of it.

B1: His-BAG5 (protein, UniProt Q9UL15 1-447)
chain: MDMGNQHPSISRLQEIQKEVKSVEQQVIGFSGLSDDKNYKKLERILTKQLFEIDSVDTEGKGDIQQARKRAAQETERLLKELEQNANHPHRIEIQNIFEEAQSLVREKIVPFYNGGNCVTDEFEEGIQDIILRLTHVKTGGKISLRKARYHTLTKICAVQEIIEDCMKKQPSLPLSEDAHPSVAKINFVMCEVNKARGVLIALLMGVNNNETCRHLSCVLSGLIADLDALDVCGRTEIRNYRREVVEDINKLLKYLDLEEEADTTKAFDLRQNHSILKIEKVLKRMREIKNELLQAQNPSELYLSSKTELQGLIGQLDEVSLEKNPCIREARRRAVIEVQTLITYIDLKEALEKRKLFACEEHPSHKAVWNVLGNLSEIQGEVLSFDGNRTDKNYIRLEELLTKQLLALDAVDPQGEEKCKAARKQAVRLAQNILSYLDLKSDEWEY
With B1, the binding entry is reported as “no binding”.

The values are drawn from paper PMC3901670.
